Test results: US20230256095A1, “DYES FOR USE IN A METHOD OF TREATMENT OF VITREOUS OPACITY-RELATED DISEASES” (UNIVERSITEIT GENT, priority 2020, published 2023)
Some entries share one result that the patent states for a list of compounds.

Amino acid sequences for entries named in this document (tags omitted). Residues count along the entry.
UniProt P02454, 152-1207 limits assumed: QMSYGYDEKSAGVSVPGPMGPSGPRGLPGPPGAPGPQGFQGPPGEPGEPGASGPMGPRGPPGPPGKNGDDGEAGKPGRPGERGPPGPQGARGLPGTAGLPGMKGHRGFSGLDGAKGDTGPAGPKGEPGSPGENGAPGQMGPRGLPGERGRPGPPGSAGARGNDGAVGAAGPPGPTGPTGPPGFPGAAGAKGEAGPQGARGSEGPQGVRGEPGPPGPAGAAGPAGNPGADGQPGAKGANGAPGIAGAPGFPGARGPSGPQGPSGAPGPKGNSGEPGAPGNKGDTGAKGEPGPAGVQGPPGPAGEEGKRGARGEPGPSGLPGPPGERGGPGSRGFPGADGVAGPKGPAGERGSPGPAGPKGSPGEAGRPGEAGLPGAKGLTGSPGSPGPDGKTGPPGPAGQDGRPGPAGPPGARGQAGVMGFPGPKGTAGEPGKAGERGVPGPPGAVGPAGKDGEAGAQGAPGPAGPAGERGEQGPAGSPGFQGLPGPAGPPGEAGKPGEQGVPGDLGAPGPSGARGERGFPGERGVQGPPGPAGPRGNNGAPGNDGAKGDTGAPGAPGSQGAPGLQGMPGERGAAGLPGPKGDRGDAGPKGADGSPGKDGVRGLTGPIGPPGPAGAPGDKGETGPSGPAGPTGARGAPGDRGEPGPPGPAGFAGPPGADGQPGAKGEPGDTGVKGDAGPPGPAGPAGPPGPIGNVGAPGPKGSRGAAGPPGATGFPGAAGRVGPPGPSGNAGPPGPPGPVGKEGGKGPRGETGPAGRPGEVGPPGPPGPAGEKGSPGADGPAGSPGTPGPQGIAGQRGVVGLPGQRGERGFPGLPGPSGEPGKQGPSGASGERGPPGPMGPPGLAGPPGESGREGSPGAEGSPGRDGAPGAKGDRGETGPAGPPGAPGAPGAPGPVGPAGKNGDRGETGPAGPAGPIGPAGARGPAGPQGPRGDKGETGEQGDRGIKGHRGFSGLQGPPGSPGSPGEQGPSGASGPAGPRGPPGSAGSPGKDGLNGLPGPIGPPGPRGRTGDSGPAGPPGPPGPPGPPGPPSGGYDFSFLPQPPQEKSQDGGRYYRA
UniProt P02466, 86-1125 limits assumed: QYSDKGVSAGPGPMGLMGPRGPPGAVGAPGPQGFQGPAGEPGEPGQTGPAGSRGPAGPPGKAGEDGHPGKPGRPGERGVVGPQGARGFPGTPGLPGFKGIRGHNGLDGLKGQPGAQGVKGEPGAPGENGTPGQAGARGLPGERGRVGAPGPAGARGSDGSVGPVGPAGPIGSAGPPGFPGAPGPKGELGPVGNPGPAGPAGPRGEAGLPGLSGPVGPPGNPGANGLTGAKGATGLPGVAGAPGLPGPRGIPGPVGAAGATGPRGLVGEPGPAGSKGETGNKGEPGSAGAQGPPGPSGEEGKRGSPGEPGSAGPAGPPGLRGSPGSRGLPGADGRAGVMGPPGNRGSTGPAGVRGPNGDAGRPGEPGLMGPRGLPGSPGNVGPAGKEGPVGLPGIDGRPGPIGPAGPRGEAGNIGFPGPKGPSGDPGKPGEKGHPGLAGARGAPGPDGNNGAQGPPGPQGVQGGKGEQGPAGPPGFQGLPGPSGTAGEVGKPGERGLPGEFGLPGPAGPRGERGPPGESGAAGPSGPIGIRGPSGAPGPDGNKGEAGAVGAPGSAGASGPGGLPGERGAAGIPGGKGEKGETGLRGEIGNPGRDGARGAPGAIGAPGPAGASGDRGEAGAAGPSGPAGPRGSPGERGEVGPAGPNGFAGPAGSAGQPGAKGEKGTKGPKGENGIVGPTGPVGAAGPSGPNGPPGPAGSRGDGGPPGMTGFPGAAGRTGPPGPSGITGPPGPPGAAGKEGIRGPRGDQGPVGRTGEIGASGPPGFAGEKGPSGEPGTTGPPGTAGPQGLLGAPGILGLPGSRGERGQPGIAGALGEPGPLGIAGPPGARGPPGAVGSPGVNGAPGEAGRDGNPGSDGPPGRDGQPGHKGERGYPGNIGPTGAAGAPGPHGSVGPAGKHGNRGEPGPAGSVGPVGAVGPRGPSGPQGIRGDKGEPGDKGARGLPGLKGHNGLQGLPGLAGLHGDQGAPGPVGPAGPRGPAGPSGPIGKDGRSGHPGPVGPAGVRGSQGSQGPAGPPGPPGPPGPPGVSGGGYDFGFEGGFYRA

Biological target: T1, type I collagen fibers (Rattus norvegicus, UniProt P02454+P02466)
T1 construct: type I collagen from the rat tail; purchased GIBCO; host or cells: rat tail (tissue-derived)
Assay: Photo-ablation of artificial floaters with nanosecond laser
Details: 0.1 mg/ml as printed; 4.5 J/cm^2
Method: Collagen fibers were prepared from type I collagen from the rat tail (GIBCO; concentration of 3 mg/ml) as described in Sauvage et al., 2019, ACS Nano, 13, 8401-8416. 5 ml of PBS was pipetted in a 15 ml falcon tube. 330 μL of the PBS solution was replaced by 330 μL collagen type I and the solution was vortexed. Sodium hydroxide (0.1 M) (VWR, Radnor, USA) was added to the acid solution of collagen to adjust pH to 7.4. The solution was vortexed again and placed for one hour in the incubator at 37° C. The final concentration of the collagen was 0.2 mg/ml.
First, dark-field microscopy imaging was performed to locate and align the nanosecond laser (Opolette HE 355 LD, OPOTEK Inc., CA, USA) on the artificial collagen fibers in the sample. Samples of either artificial or human opacities treated with TB, ICG and ICG nanoparticles were then illuminated with the laser (<7 ns). The wavelength of the laser light was 561 nm and the energy was set at ±800 μJ. A beam expander (#GBE05-A, Thorlabs) combined with iris diaphragm (#D37SZ, Thorlabs) were used to adjust the diameter of the laser beam to 150 μm (so that 800 μJ corresponded to a laser fluence of 4.5 J/cm^2). The laser pulse energy was monitored by an energy meter (J-25 MB-HE&LE, Energy Max-USB/RS sensors, Coherent) synchronized with the pulsed-laser. The set-up was made in such way to illuminate the sample shot by shot. […]

Compound: Cc1cc(-c2ccc(/N=N/c3c(S(=O)(=O)O)cc4cc(S(=O)(=O)O)cc(N)c4c3O)c(C)c2)ccc1/N=N/c1c(S(=O)(=O)O)cc2cc(S(=O)(=O)O)cc(N)c2c1O [free TB, Trypan Blue]
- number of pulses for clear destruction of type I collagen fibers: less than 10 pulses
